Measured values from PMC8882603.
These are yes or no findings as the source states them, for the method shown. In cells and extracts the contact can be indirect. Some binding calls cover weakened binding; strength is not graded here.

Chains of the proteins cited; added tags and fusions are not shown.
UniProt Q99836: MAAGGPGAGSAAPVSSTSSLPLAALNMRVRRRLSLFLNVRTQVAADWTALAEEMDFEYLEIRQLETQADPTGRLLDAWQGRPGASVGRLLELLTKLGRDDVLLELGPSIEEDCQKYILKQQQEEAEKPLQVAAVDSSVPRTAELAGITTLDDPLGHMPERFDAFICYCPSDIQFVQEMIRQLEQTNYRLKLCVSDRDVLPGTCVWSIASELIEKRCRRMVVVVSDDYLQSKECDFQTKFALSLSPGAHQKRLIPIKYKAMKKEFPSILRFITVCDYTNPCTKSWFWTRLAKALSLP
UniProt P22366: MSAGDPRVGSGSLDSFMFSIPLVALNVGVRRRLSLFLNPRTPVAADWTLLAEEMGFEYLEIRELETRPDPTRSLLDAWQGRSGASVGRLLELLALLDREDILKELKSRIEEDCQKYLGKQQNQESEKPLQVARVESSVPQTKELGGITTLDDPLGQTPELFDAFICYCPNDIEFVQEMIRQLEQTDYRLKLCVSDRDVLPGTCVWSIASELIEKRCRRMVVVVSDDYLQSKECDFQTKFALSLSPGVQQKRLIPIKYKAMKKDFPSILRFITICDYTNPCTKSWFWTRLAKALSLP
UniProt Q9HCE7: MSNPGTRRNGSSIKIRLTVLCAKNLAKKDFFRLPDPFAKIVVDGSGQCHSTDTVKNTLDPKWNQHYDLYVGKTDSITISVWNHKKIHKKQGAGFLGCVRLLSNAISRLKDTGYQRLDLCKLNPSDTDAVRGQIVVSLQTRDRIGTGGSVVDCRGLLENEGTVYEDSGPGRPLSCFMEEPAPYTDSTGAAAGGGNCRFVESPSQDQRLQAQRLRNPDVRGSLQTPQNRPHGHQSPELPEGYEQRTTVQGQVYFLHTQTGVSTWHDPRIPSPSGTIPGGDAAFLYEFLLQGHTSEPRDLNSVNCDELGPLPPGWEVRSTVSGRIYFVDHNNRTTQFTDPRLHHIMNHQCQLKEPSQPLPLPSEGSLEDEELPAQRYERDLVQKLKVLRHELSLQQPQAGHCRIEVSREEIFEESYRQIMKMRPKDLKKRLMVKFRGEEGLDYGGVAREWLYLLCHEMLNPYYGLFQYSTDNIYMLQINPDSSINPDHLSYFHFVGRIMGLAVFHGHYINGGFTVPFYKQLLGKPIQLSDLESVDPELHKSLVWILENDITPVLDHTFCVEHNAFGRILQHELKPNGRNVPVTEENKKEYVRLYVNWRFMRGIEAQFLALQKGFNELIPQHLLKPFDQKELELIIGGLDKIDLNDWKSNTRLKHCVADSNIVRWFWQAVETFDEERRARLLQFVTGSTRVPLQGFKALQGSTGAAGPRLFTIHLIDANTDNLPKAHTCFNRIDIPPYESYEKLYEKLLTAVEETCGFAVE
UniProt Q9CUN6: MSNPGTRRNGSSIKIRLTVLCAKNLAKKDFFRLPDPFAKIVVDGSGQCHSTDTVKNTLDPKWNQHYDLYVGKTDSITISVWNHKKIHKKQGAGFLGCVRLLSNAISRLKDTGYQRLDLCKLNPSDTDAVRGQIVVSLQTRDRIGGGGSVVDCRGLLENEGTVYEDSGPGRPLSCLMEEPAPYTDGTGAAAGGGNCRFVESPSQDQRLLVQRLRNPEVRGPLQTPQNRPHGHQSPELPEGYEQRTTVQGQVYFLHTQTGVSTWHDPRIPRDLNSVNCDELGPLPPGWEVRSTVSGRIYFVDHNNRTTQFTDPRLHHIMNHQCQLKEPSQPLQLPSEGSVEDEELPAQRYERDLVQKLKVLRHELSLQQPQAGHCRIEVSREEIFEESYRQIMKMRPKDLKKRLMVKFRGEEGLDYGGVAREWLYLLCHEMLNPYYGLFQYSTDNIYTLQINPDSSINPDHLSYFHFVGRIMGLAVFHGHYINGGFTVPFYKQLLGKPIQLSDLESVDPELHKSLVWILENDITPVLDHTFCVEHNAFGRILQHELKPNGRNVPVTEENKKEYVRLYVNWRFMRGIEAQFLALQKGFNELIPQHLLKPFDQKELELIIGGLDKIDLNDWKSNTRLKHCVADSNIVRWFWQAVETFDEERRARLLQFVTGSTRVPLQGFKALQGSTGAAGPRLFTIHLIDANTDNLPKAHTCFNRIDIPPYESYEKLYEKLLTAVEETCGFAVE

What was measured:
[1] = molecular target: MyD88-HA (UniProt Q99836); assay: co-IP; HEK293T cells co-transfected with pMyD88-HA, pPPE36-Flag, pSmurf1-Myc and pUb-Flag for 36 h; lysates immunoprecipitated with anti-HA beads, precipitates immunoblotted (anti-Myc, anti-Smurf1); with and without PPE36
[2] = molecular target: MyD88 (endogenous, RAW-PPE36 macrophages) (mouse (endogenous in RAW264.7)) (UniProt P22366); assay: co-IP; RAW-PPE36 and control RAW264.7 macrophages; lysates immunoprecipitated for MyD88, precipitates immunoblotted for Smurf1

Row | Substance | binding [1] | binding [2]
1 | Smurf1-Myc (from UniProt Q9HCE7 1-757) (enzyme) | binds | –
2 | Smurf1 (endogenous, RAW-PPE36 macrophages) (from UniProt Q9CUN6 1-731) (enzyme) | – | binds
